Experimental data taken from the supplement of paper PMC8256030.
“And” between values parts separate entries of the source, which are not always exact repeats. Equal values may be shown once. The list shows a part of the results. Single values are uncertain here, since repeats match poorly.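 HEK293T cells were given each compound shortly before transfection with a reporter in which red mCherry is followed by the SARS-CoV-2 frameshift element and then GFP in the −1 frame, so GFP appears only after frameshifting.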

test system: HEK293T; assay: percent viability (nuclei count) relative to control; higher = more viable cells; conditions: 10 µM; 24 h

Structure (SMILES)	percent viability
CCN(CC)CCNC(=O)c1c(C)[nH]c(/C=C2\C(=O)Nc3ccc(F)cc32)c1C [sunitinib]	191% and 224%
CC[C@H]1OC(=O)[C@H](C)C(=O)[C@H](C)[C@@H](O[C@@H]2O[C@H](C)C[C@H](N(C)C)[C@H]2O)[C@](C)(OC)C[C@@H](C)C(=O)[C@H](C)[C@H]2N(CCCCn3cnc(-c4cccnc4)c3)C(=O)O[C@]12C	289%
CCn1cc(C(=O)O)c(=O)c2cnc(N3CCCC3)nc21 [piromidic acid]	373%
COc1cc2c(cc1OC)CN(C(=O)[C@H](C)N[C@@H](CCc1ccccc1)C(=O)O)[C@H](C(=O)O)C2 [moexiprilat]	221%
CC(=O)O[C@H](CC(=O)[O-])C[N+](C)(C)C [Acetylcarnitine]	232%
